Results reported in patent US20030175848A1, “Substituted dithiobisnitrobenzenes and their applications” (Institut Pasteur De Lille, priority 1998, published 2003).
Read-outs that look alike come from different tables or passages of the source.

Protein sequences, listed by entry. Tags and fused reporters are not part of them. Lines headed by an entry give the natural chain unless they say otherwise; changes in a name come on top.
UniProt P28593: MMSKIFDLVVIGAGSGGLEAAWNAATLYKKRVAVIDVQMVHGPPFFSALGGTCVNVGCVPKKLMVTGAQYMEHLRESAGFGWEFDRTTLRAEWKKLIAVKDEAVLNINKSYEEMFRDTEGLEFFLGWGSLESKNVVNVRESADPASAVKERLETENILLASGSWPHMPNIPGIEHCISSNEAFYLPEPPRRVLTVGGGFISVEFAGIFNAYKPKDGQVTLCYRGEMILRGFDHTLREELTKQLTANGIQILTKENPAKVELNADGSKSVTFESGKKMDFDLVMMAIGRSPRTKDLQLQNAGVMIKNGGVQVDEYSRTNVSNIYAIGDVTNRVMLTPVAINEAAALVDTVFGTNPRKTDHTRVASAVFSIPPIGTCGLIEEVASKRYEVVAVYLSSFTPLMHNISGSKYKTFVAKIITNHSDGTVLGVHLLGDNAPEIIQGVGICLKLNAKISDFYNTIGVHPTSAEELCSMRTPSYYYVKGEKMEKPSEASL

Assays:
[1] = target: T1, trypanothione reductase (TcTR) (Trypanosoma cruzi, UniProt P28593); conditions: T(S)2 as substrate; reference [38]; cited from earlier work
[2] = target: T1, trypanothione reductase (TcTR); experiment: biochemical

Ki [2]: 8 ± 0.9 µM
Structure (SMILES): CN(C)CCCN1c2ccccc2CCc2ccc(Cl)cc21 [clomipramine]
Ki [1]: ~6.53 µM
